According to EP0387762A2, “Medicament with positive inotropic activity, containing a synergistically active mixture consisting of a benzimidazole and a beta-blocker, its preparation and use” (Dr. Karl Thomae GmbH, priority 1989, dated 1990):

Tested on: Hunde
Settings: dogs, after i.v. dosing (Verbindung A 0,3 mg/kg; Atenolol 0,1 mg/kg; A/Atenolol 0,3/0,1 mg/kg)

CC(C)NCC(O)COc1ccc(CC(N)=O)cc1 (centres unmarked) [Atenolol, reference compound]
LV-dP/dtmax (mmHg/s) in Ruhe (at rest): 1,88 ± 0,16 mmHg/s | LV-dP/dtmax (mmHg/s) bei maximaler Belastung im Versuch (8 km/h) (treadmill 8 km/h): 2,15 ± 0,17 mmHg/s
